{"source": "patent US20250152545A1", "about": "“NOVEL ANTIVIRAL COMPOSITIONS COMPRISING OLEIC ACID” (SUBINTRO LIMITED, priority 2021, published 2025)", "key": {"[1]": {"system": "SARS-COV-2 (strain BetaCoV/France/IDF0571/2020)", "assay": "SARS-COV-2 viral load in apical wash of infected ALI cultured human nasal epithelium (RT-PCR)", "format": "cell-based", "conditions": "5 μM in basolateral chamber, Day 0 and Day 1; apical wash 48 hrs post inoculation", "description": "Primary human nasal, trachea, and bronchial epithelial cells can be cultured and differentiated at an air-liquid interface (ALI), forming a pseudostratified mucociliary airway epithelium that is composed of ciliated cells, goblet cells, club cells, and basal cells with an arrangement closely reflective of an in vivo cellular organization. This in vitro model of human airway epithelium (HAE) cultured at an ALI (HAE-ALI) closely recapitulates many important characteristics of respiratory virus-host cell interactions seen in the infected upper and lower airways in vivo and has been used to study many human respiratory viruses, including SARS-COV-2. […]\nVirus load was quantified by RT-PCR as reported by Pizzorno et al. (Cell Rep Med. 1 (4): 100059, 2020). […] Viral RNA will be quantified by RT-qPCR (Express One-Step Superscript™ qRT-PCR kit, Invitrogen). SARS-COV-2-specific primer and probes used for viral genome quantification as follows: Target: ORF1b-nsp14 Forward primer (HKU-ORF1b-nsp14F) 5′-[…]-3′ Reverse primer (HKU-ORF1b-nsp14R) 5′-[…]-3′ Probe (HKU-ORF1b-nsp141P) 5′-FAM-[…]-TAMRA-3′. Ct data were determined and relative changes in gene expression were calculated using the […] and shown as the fold reduction of genome copy number (ORF1b-nsp14 gene of SARS-COV-2) relative to the mean of vehicle treated infected control."}, "[2]": {"system": "SARS-COV-2 infected ALI cultured human nasal epithelium", "format": "cell-based", "conditions": "5 μM in basolateral chamber; 48 hrs post virus inoculation"}}, "note": "For at least one compound, name, drawing or mass did not settle the structure."}
{"smiles": "CCC(CC)COC(=O)[C@H](C)N[P@](=O)(OC[C@H]1O[C@@](C#N)(c2ccc3c(N)ncnn23)[C@H](O)[C@@H]1O)Oc1ccccc1", "note": "[remdesivir]", "values": [{"measurement": "reduction of viral load (assay control)", "setting": "[1]", "result": 3.4, "unit": "log"}, {"measurement": "protection from virus-induced reduction in TEER (assay control)", "setting": "[2]", "result": 81, "unit": "%"}]}
